Measured values: PubChem BioAssay AID2685 (National Center for Advancing Translational Sciences (NCATS), 2010)
The list shows a part of the results. The main result of the screen is listed elsewhere. These columns were measured beside it and carry no call. The list favours compounds with an active or inconclusive main result. Potencies come from curve fits of mixed quality, noted in brackets.

Test: qHTS Assay for Lipid Storage Modulators in Drosophila S3 Cells;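 for cell number change: cells counted by Cell Tracker Red CMTPX staining in the red channel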
Settings: BODIPY lipid droplet fluorescence, 18-24 h; for cell number change: measured here: cell count max response, cells fed with added oleic acid
Summary of the method: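 Laser-scanning cytometry quantifies lipid droplet accumulation (500–530 nm total intensity; droplet/cell object ratio) in oleic acid-fed (400 uM added) Drosophila S3 cells treated with a concentration series. 20 uM Triacsin C defined 100% inhibition.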

[1] = measured here: cell number channel AC50, cells fed with added oleic acid
[2] = measured here: lipid fluorescence (Fed channel) AC50, cells fed with added oleic acid

Row | SMILES | cell number change [%] | AC50 [1] | AC50 [2]
1 | O=[N+]([O-])c1cc(C(F)(F)F)ccc1NCCc1c[nH]c2ccccc12 | -58.6 | 11.6 µM [falling, partial curve] | 14.6 µM [falling, partial curve]
2 | COc1ccc(NC(=O)c2ccc3nc[nH]c3c2)c(OC)c1 | 70.4 | 11.6 µM [rising, partial curve] | –
3 | O=C(NCc1ccncc1)c1ccccc1Nc1ccc(SC(F)F)cc1 | 1.32 | – | –
4 | CCOc1cccc(C(=O)NC(=S)Nc2cccc(C)c2)c1 | 36.1 | 9.2 µM [rising, partial curve] | 10.3 µM [rising, partial curve]
5 | COc1ccc(-c2nc3ccccc3c(=O)n2N)cc1 | -21.5 | 0.291 µM [rising, full curve, poor fit] | 3.66 µM [rising, partial curve, poor fit]
6 | Fc1cccc(Nc2ncnc3c2cnn3-c2ccccc2)c1 | -26.5 | – | –
7 | COc1ccc(C)cc1NC(=O)C(OC(=O)Cn1cnc2c1c(=O)n(C)c(=O)n2C)c1ccccc1 (stereo not drawn) | 44.4 | 20.6 µM [rising, single point] | 25.9 µM [rising, single point]
8 | COc1cccc(-c2csc(NC(=O)C3CC3)n2)c1 | 18.2 | 3.26 µM [rising, partial curve, poor fit] | 2.31 µM [rising, partial curve, poor fit]
9 | O=C1OCCC1Sc1nnc(-c2cccc(Br)c2)o1 (stereo not drawn) | – | – | 23.1 µM [falling, partial curve]
10 | COc1ccc(N(C(=O)c2snc(C(N)=O)c2N)C(C(=O)NC2CCCCC2)c2ccc(C)o2)cc1 (stereo not drawn) | 11.8 | – | 25.1 µM [falling, single point]
11 | COc1ccc([C@H]2CC(=O)C=C(c3ccc(C(F)(F)F)c(C(F)(F)F)c3)C2)cc1OC | -48.9 | 29.1 µM [falling, single point] | 29.1 µM [falling, single point]
12 | COCCn1c(-c2ccc(OC)cc2)cnc1SCC(=O)Nc1ccc(OC)cc1OC | 4.98 | – | –
13 | CN(C1CCCCC1)S(=O)(=O)c1ccc(NC(=O)Cn2nc(-c3ccc(F)cc3)ccc2=O)cc1 | 34.3 | 5.17 µM [rising, single point] | 18.4 µM [rising, partial curve]
14 | Cc1ccnc(NC(=O)c2ccc3c(c2)C(=O)N(CCC(C)C)C3=O)c1 | -24 | – | –
15 | COc1ccccc1N1CCN(c2nc(-c3ccccc3)cc(C(F)(F)F)n2)CC1 | -3.12 | – | –
16 | O=C(COC(=O)CCc1c[nH]c2ccccc12)Nc1ccccc1C(F)(F)F | -17.5 | – | 6.51 µM [rising, single point]
17 | COc1ccc(-n2c(C)nc3cc(C(=O)O)ccc32)cc1 | 10.3 | – | 23.1 µM [falling, partial curve]
18 | O=C(NC(=S)Nc1ccc(F)cc1)c1ccc2c(c1)OCCO2 | 0.923 | – | 0.731 µM [falling, full curve]
19 | Cc1ccc(Nc2nc(C(=O)N3CCC(C(=O)N4CCN(C)CC4)CC3)cs2)cc1 | 73 | 18.4 µM [rising, single point] | 1.3 µM [rising, single point]
20 | CN(c1ccc(F)cc1)S(=O)(=O)c1ccc(Cl)c(C(=O)OCC(=O)NCc2ccco2)c1 | 34.9 | 0.116 µM [rising, full curve] | 0.82 µM [rising, full curve]

Row | SMILES | cell number change [%] | AC50 [1] | AC50 [2]
21 | Cc1cc(-c2cn3ccccc3n2)c(C)n1-c1ccccc1 | -131 | – | –
22 | O=C1CCCN1c1ccc(N2CCCC2=O)cc1 | 21.1 | – | –
23 | COc1cc(/C=N/NC(=O)c2cccs2)ccc1OCc1ccccc1 | -47.1 | 16.4 µM [falling, partial curve, poor fit] | 0.411 µM [falling, partial curve]
24 | CC(C)C(C)(C#N)NC(=O)CSc1nnc(-c2ccncc2)n1Cc1ccccc1 (stereo not drawn) | 57.2 | 29.1 µM [rising, single point] | 16.4 µM [rising, partial curve]
25 | CC(=O)N1CSCC1C(=O)N1CCN(c2ccc(N3CCOCC3)nn2)CC1 (stereo not drawn) | 5.07 | – | 0.00461 µM [rising, full curve, poor fit]
26 | CCOC(=O)C1CCCN(C(=O)c2cc(-c3ccc(F)cc3)nc3ccccc23)C1 (stereo not drawn) | 41.4 | 29.1 µM [rising, single point] | –
27 | CC(C)(C)n1nnnc1C(c1cccs1)N1CCN(Cc2ccccc2)CC1 (stereo not drawn) | 9.22 | – | –
28 | Cc1cc(C)n(-c2nc3c(c(=O)[nH]c(=O)n3C)n2Cc2ccccc2)n1 | 16.3 | 0.231 µM [rising, full curve, poor fit] | 0.326 µM [rising, full curve]
29 | c1ccc(C(c2ccccc2)N2CCN(Cc3nnnn3C3CCCC3)CC2)cc1 | 53.9 | 8.2 µM [rising, partial curve] | –
30 | Clc1ccc(-c2nnc(C3CCCCC3)o2)cc1 | -7.28 | – | –
31 | O=C(CNCc1ccc(F)cc1)Nc1ccccc1-c1ccccc1 | -0.718 | 6.51 µM [rising, single point] | 6.51 µM [rising, partial curve, poor fit]
32 | COC(=O)c1c(C)[nH]c(C(=O)COc2ccc3ccc(=O)oc3c2)c1C | -43.4 | 29.1 µM [falling, single point] | 29.1 µM [falling, single point]
33 | O=C(NCc1cccs1)c1cc(-c2ccccc2)on1 | 17 | – | –
34 | COc1ccc2c([N+](=O)[O-])c(N3CCCC3)[nH]c2c1 | 7.04 | – | 29.1 µM [rising, single point]
35 | O=C(Nc1ccc(Cl)cc1)N(CCCN1CCOCC1)Cc1cccs1 | 3.13 | – | 7.31 µM [rising, partial curve, poor fit]
36 | COc1cccc(/C=N/c2nc3ccccc3n2C)c1O | 12.9 | – | –
37 | CCCC/C(C)=N\NC(=O)CNS(=O)(=O)c1ccc([N+](=O)[O-])cc1 | -37.2 | 0.82 µM [falling, full curve, poor fit] | 6.51 µM [falling, single point]
38 | CCOc1ccccc1/C=C/c1cc(C(=O)O)c2ccccc2n1 | 21.8 | – | –
39 | COc1ccc(N2CCN(Cc3cc(=O)oc4c3ccc3ccccc34)CC2)cc1 | -17.2 | – | –
40 | COc1ccc(Nc2cc(C)nc3c(C)cccc23)cc1OC | -13.5 | – | –

Row | SMILES | cell number change [%] | AC50 [1] | AC50 [2]
41 | CCOC(=O)c1cccc(NC(=O)CCc2nnc3ccc(N4CCOCC4)nn23)c1 | -18.4 | – | –
42 | CCOC(=O)C1CCCN(C2CC(=O)N(c3ccccc3)C2=O)C1 (stereo not drawn) | -31.8 | – | –
43 | COc1ccc2nc(-c3ccco3)c(-c3ccco3)nc2c1 | – | – | 0.13 µM [falling, full curve, poor fit]
44 | Cc1ccc2sc(NNC(=O)c3cc(=O)c4ccccc4o3)nc2c1C | – | – | 3.66 µM [falling, partial curve, poor fit]
45 | c1ccc2c(CCNc3ncnc4nc[nH]c34)c[nH]c2c1 | -26.4 | – | 16.4 µM [falling, single point]
46 | Cc1cc(C)cc(OCCNC(=O)C(C)N2C(=O)c3ccccc3C2=O)c1 (stereo not drawn) | 16.2 | – | 6.51 µM [falling, single point]
47 | O=C(CN(Cc1ccc(F)cc1)C(=O)CCC(=O)Nc1ccccn1)NCc1ccc(F)cc1 | 27.1 | – | 0.116 µM [falling, single point]
48 | O=C(Nc1cc(=O)[nH]c2ncnn12)c1ccccc1F | -45.6 | 4.11 µM [falling, single point] | 4.11 µM [falling, single point]
49 | COC(=O)c1noc(-c2ccc(OC)cc2)n1 | -3.99 | – | 0.00461 µM [falling, full curve, poor fit]
50 | Cc1c(OC(C)C(=O)NCC2CCC(C(=O)O)CC2)ccc2c(-c3ccccc3)cc(=O)oc12 (stereo not drawn) | -12.9 | – | 4.11 µM [falling, full curve]
51 | COc1ccccc1C1CCN(c2cc(O)ccc2[N+](=O)[O-])CC1 | -58.5 | 16.4 µM [falling, single point] | 20.6 µM [falling, partial curve]
52 | CCCCCOC(=O)Nc1nnc(CCC)s1 | -24.5 | 4.11 µM [falling, full curve, poor fit] | 3.26 µM [falling, single point]
53 | COc1cc2c(cc1OC)C1=NC(=O)CN1C(SCc1ccccc1C)=N2 | -13.5 | – | –
54 | CCn1c(C)c(C)c2cc(C(=O)NCCCN3CCOCC3)ccc21 | -5.32 | – | –
55 | O=C(NCC1CCCO1)c1cccc(S(=O)(=O)N2CCCCC2)c1 (stereo not drawn) | 14.4 | – | 29.1 µM [rising, partial curve, poor fit]
56 | CC(C)(O)C#Cc1ccc(C(=O)Nc2ccc3c(c2)OCO3)s1 | 1.22 | – | 0.461 µM [rising, full curve, poor fit]
57 | CN1c2ccc(C=O)c3c(C=O)ccc(c23)N(C)C1(C)C | -70 | 29.1 µM [falling, single point] | 23.1 µM [falling, partial curve]
58 | CC(C)(CSc1ncccn1)NS(=O)(=O)c1ccccc1 | 17.9 | – | 0.0259 µM [rising, full curve, poor fit]
59 | O=C(O)c1ccc(NS(=O)(=O)c2ccc3c(c2)OCCO3)cc1 | 2.87 | – | 16.4 µM [falling, partial curve, poor fit]
60 | COc1ccc(C2(C)NC(=O)N(CC(=O)Nc3ccc(-c4nc5ccc(C)cc5s4)cc3)C2=O)cc1 (stereo not drawn) | -45.7 | – | 0.316 µM [falling, full curve, poor fit]

Structures above with a furan ring, fused or not:
Row | SMILES | cell number change [%] | AC50 [1] | AC50 [2]
10 | COc1ccc(N(C(=O)c2snc(C(N)=O)c2N)C(C(=O)NC2CCCCC2)c2ccc(C)o2)cc1 (stereo not drawn) | 11.8 | – | 25.1 µM [falling, single point]
20 | CN(c1ccc(F)cc1)S(=O)(=O)c1ccc(Cl)c(C(=O)OCC(=O)NCc2ccco2)c1 | 34.9 | 0.116 µM [rising, full curve] | 0.82 µM [rising, full curve]
43 | COc1ccc2nc(-c3ccco3)c(-c3ccco3)nc2c1 | – | – | 0.13 µM [falling, full curve, poor fit]
